This experiment deals with T1, Endonuclease G (ENDOG), overexpressed in L02 cells (human) (UniProt Q14249).
T1 sequence: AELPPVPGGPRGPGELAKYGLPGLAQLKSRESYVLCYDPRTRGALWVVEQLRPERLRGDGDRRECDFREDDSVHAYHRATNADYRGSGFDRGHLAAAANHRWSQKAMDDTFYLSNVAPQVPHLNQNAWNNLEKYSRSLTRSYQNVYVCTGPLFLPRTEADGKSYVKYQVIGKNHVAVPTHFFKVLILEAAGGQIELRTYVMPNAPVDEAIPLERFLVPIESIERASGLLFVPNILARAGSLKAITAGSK
The experiment can be described thus: affinity purification with mass spectrometry; immunoprecipitation of proteins associated with ENDOG; bands excised, trypsin digested, HPLC-MS.

These results are taken from paper PMC7817833.

These are yes or no findings as the source states them, for the method shown. In cells and extracts the contact can be indirect. A yes stands for co-enrichment or nearness to the bait. Other partners may have been found.

B1: 14-3-3γ, endogenous (protein, UniProt P61981 1-247)
chain: MVDREQLVQKARLAEQAERYDDMAAAMKNVTELNEPLSNEERNLLSVAYKNVVGARRSSWRVISSIEQKTSADGNEKKIEMVRAYREKIEKELEAVCQDVLSLLDNYLIKNCSETQYESKVFYLKMKGDYYRYLAEVATGEKRATVVESSEKAYSEAHEISKEHMQPTHPIRLGLALNYSVFYYEIQNAPEQACHLAKTAFDDAIAELDTLNEDSYKDSTLIMQLLRDNLTLWTSDQQDDDGGEGNN
With B1, the binding result is “binds”.
